PMC7819943, “Rice protein-binding microarrays: a tool to detect cis-acting elements near promoter regions in rice”
Some of the results follow.

The chains behind the UniProt entries cited, without tags or fusion partners.
UniProt Q0JBA9, entry or part of it: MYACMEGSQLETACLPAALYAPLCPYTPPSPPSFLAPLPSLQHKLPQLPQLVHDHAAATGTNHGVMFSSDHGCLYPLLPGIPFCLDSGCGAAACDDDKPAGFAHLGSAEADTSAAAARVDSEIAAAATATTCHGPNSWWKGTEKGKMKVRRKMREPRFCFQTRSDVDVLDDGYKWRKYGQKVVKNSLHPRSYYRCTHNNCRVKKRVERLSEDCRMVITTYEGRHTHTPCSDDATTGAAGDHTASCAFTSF

molecular target: OsWRKY34 (Oryza sativa, UniProt Q0JBA9 1-250); assay: protein-binding microarray (RPBM); PBS, 2% BSA, 51.3 ng/ul salmon testes DNA, 50 uM zinc acetate, 200 nM TF, 25 C, 1 h; high values mean tight binding; details: protein: recombinant; tags: N-terminal polyhistidine and DsRed monomer fusion (pET32a); label: CyDye5-dUTP incorporated in the synthesized complementary strand; 3' TTTTT single-stranded linker to array surface; dsDNA, one strand shown
In short: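 The binding signal is fluorescence intensity per array feature (arbitrary units). Readings came from an Axon 4000B scanner after a washed, 2% BSA-blocked, double-stranded custom Agilent array had been incubated for 1 h at 25 °C with 200 nM protein and 50 µM zinc acetate. The protein was a Ni–NTA-purified transcription factor fused N-terminally to polyhistidine and DsRed, expressed in E. coli BL21-CodonPlus.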

Row | Sequence | binding signal
1 | CAGTCGCAGTTTCTACAAAGTTTGACTAAATTTTTCACCCCGGAGTCACCTAGTGCAG | 9370 fluorescence intensity (a.u.)
2 | ATACATTTATTCCTTCTTAGAGTCACTACTCTTCATTGAACGGAGTCACCTAGTGCAG | 8060 fluorescence intensity (a.u.)
3 | CCTGTCCCATCGCACTATCTACCTTCAATTTCTCTCGCGGCGGAGTCACCTAGTGCAG | 9060 fluorescence intensity (a.u.)
4 | CCGCGCCGCGCCACGCCACGCCACGCCGAGTTGCCGAGCTCGGAGTCACCTAGTGCAG | 8580 fluorescence intensity (a.u.)
5 | TTATCCTCAGTGAGCTTCAGAGTTTGTTTTTTTTCTGTCCCGGAGTCACCTAGTGCAG | 10400 fluorescence intensity (a.u.)
6 | GCCGCTGTTTGCTCCGCCCCTGAAATACGACCCGGCGGCGCGGAGTCACCTAGTGCAG | 9030 fluorescence intensity (a.u.)
7 | TGCCCTCTGACCTCATTTTCAGTCCCTGTTAGGACTTCATCGGAGTCACCTAGTGCAG | 9820 fluorescence intensity (a.u.)
8 | TCCTTTTCTTTTCTTTTATTTTTTTTTGTTTTTTCCCGTTCGGAGTCACCTAGTGCAG | 8300 fluorescence intensity (a.u.)
9 | ACGCGCCATCTTGCACATCTCCCCGCCGTCTCGTGGGCATCGGAGTCACCTAGTGCAG | 8110 fluorescence intensity (a.u.)
10 | CTTAAACGCGTACTCTCATACAATTAATGTATGCTGGATTCGGAGTCACCTAGTGCAG | 9150 fluorescence intensity (a.u.)
11 | CCAATTTACAGTCTCAATCCACTCCCACCAATCTTCTCTACGGAGTCACCTAGTGCAG | 8420 fluorescence intensity (a.u.)
12 | ACGTTGGATTGGTGGTGGACGGGCGCGATGGGTTGGGGTGCGGAGTCACCTAGTGCAG | 9930 fluorescence intensity (a.u.)
13 | TTGGGTGGAGGATTTGGAATTTGACCGGTTGACTTAGGGTCGGAGTCACCTAGTGCAG | 11900 fluorescence intensity (a.u.)
14 | TTTAGGGATATACATTTCTGGTTTTGTGGTTAAGGGACTTCGGAGTCACCTAGTGCAG | 8430 fluorescence intensity (a.u.)
15 | GTGTTCGTCACTTCAGCCCGTTCGAACTGTCTCGTGGCCACGGAGTCACCTAGTGCAG | 9130 fluorescence intensity (a.u.)
16 | CCCTGCCGCATCTTCTCATCGCCCTCACGCCCGGCCGGCCCGGAGTCACCTAGTGCAG | 14300 fluorescence intensity (a.u.)
17 | CTTCTCTCTCTTCTCTTTTCTCTCCTCTATATTAGCATTTCGGAGTCACCTAGTGCAG | 9370 fluorescence intensity (a.u.)
18 | CCGCCGCCCACCTCATGCCTTGCGCGGTGCCCGTGAGAGACGGAGTCACCTAGTGCAG | 8250 fluorescence intensity (a.u.)
19 | TGTGTTTTTGTGTGTGTGTTTCAGTGTGTCTCTCATCCCTCGGAGTCACCTAGTGCAG | 9450 fluorescence intensity (a.u.)
20 | AACTAAACTCGGCCTCAAATTAGTGTCAAACTTCTCTTGTCGGAGTCACCTAGTGCAG | 8400 fluorescence intensity (a.u.)
21 | CCTAGTAACCTACGACTCCCAGGTTCCAACACCACCCATCCGGAGTCACCTAGTGCAG | 8120 fluorescence intensity (a.u.)

Looked up one by one from the list above:
Row | Sequence | binding signal
4 | CCGCGCCGCGCCACGCCACGCCACGCCGAGTTGCCGAGCTCGGAGTCACCTAGTGCAG | 8580 fluorescence intensity (a.u.)
12 | ACGTTGGATTGGTGGTGGACGGGCGCGATGGGTTGGGGTGCGGAGTCACCTAGTGCAG | 9930 fluorescence intensity (a.u.)

Continuation:

Row | Sequence | binding signal
22 | ACAAAAATACGAATATTCCGTTCCACGTCGTCTATCCGCGCGGAGTCACCTAGTGCAG | 9330 fluorescence intensity (a.u.)
23 | CTTGTACATCTGTCTTGCTAGAGTCTTTCACAAGATTACACGGAGTCACCTAGTGCAG | 8080 fluorescence intensity (a.u.)
24 | AGTTTTTTTTTTGTTTGTTTTATCTATGTCCAGTCCATTTCGGAGTCACCTAGTGCAG | 13400 fluorescence intensity (a.u.)
25 | TTTACTTCTCGTTTGCTCTATACGCTCTAAGGCTGCCTTTCGGAGTCACCTAGTGCAG | 9210 ± 695 fluorescence intensity (a.u.)
26 | CCATCTCTACTTCTCTACTTTATTTCGTGAGAGAGCTTCACGGAGTCACCTAGTGCAG | 8380 fluorescence intensity (a.u.)
27 | GCAGGTCAAACATTTTTAGCTTTGACCATTAATAGCAAAACGGAGTCACCTAGTGCAG | 12900 fluorescence intensity (a.u.)
28 | GCCACCACCACCGCTCCGCCCGCCGCACCACCCACCGATGCGGAGTCACCTAGTGCAG | 8170 fluorescence intensity (a.u.)
29 | TCCACTATGGCCATCCTGATATCTTTGATCGTCTTTTCCACGGAGTCACCTAGTGCAG | 17500 fluorescence intensity (a.u.)
30 | AAACTATCTGCCACTCCTCTCTCTCGTCTCTCTTCACCTCCGGAGTCACCTAGTGCAG | 8600 fluorescence intensity (a.u.)
31 | GGCTAATTTACGGTTATTGTTGCGGTTATATTTTTAGCATCGGAGTCACCTAGTGCAG | 9950 fluorescence intensity (a.u.)
32 | TCTCCTCTTACAATGTCATTACTTCTCTTCGGTGTTTTGCCGGAGTCACCTAGTGCAG | 9000 fluorescence intensity (a.u.)
33 | ACGTTATTTATTGTTTTAGGTTCAATCTACGAGTTTCTTTCGGAGTCACCTAGTGCAG | 10700 fluorescence intensity (a.u.)
34 | GAGCTCTGCTCGTTTCTTGGCGTCTTCTTTCTTCTTCTTCCGGAGTCACCTAGTGCAG | 8490 fluorescence intensity (a.u.)
35 | CCGTATTCTGAACATTTTCTTAATTTCTTATAGCTTGTACCGGAGTCACCTAGTGCAG | 10000 fluorescence intensity (a.u.)
36 | CACCTCCACCCAGCTGCGTCGCCACTCTTCACCCACCATCCGGAGTCACCTAGTGCAG | 8080 fluorescence intensity (a.u.)
37 | TAATCCTCTGGTTTTTTGCGTTCCCAGATATATAGGTTCCCGGAGTCACCTAGTGCAG | 9490 fluorescence intensity (a.u.)
38 | ATGCTGCTCCGGACTCGTCTTCCTTGTCGTCGCCTCACGCCGGAGTCACCTAGTGCAG | 9000 fluorescence intensity (a.u.)
39 | CTTCCTTTCGTCATGCGTACAAGCCATCCCCACATCACCACGGAGTCACCTAGTGCAG | 8790 fluorescence intensity (a.u.)
40 | GAACTTATCTGCAATTGCAGTCCTATCAGGCATAAATTATCGGAGTCACCTAGTGCAG | 8120 fluorescence intensity (a.u.)
41 | CGCTTTCCTCTGTTTCTCCGCCGCGCTCGTTCGTCGTCTCCGGAGTCACCTAGTGCAG | 21400 fluorescence intensity (a.u.)
42 | TTCTGCTGGTTTTGGTACCTGAACATCTCCATACCCATATCGGAGTCACCTAGTGCAG | 13600 fluorescence intensity (a.u.)
